# Measurements as given in patent publication US20240285600A1, “NOVEL MKRN1 INHIBITOR AND PHARMACEUTICAL COMPOSITION FOR PREVENTING OR TREATING OBESITY OR FATTY LIVER COMPRISING THE SAME” (UIF (University Industry Foundation), Yosei University, priority 2023, published 2024).
# The chains behind the UniProt entries cited, without tags or fusion partners. Residues count along the entry.
# UniProt Q9UHC7, whole entry H307E: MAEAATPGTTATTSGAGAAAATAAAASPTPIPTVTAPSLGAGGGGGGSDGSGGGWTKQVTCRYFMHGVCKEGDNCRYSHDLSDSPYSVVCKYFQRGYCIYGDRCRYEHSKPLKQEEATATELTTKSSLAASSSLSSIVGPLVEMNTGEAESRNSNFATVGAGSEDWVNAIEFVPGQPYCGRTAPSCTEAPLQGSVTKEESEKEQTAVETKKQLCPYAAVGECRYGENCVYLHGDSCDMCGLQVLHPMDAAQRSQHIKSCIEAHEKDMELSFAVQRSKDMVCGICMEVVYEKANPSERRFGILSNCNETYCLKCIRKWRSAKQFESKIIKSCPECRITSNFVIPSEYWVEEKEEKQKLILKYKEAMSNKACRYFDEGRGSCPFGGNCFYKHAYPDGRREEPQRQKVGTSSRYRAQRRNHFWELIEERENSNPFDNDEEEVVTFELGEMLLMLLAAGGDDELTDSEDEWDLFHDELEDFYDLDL
# UniProt Q9UHC7, 264-482: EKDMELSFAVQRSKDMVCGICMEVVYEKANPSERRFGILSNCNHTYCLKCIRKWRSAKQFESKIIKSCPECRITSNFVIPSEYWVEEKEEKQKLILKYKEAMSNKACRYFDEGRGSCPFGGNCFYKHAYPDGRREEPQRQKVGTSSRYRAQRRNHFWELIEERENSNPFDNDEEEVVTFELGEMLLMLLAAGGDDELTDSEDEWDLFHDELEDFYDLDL
# Experiments:
# [1] = molecular target: MKRN1 (Homo sapiens, UniProt Q9UHC7, H307E); details: 293T cells overexpressing MKRN1 E3 ligase-deficient mutant (H307E), FIG. 11
# [2] = molecular target: T1, MKRN1 (Homo sapiens, UniProt Q9UHC7); details: FIG. 11
# [3] = molecular target: T1, MKRN1; details: 293T cells overexpressing MKRN1 WT with ubiquitin, FIG. 12A
# [4] = molecular target: T1, MKRN1; details: HepG2 cells
# [5] = molecular target: recombinant MKRN1 (264-482) protein (Homo sapiens, UniProt Q9UHC7); details: purified recombinant protein, FIG. 12B
smiles,measurement,setting,value
CC(C)(C)c1ccc(C(=O)CCCN2CCC(OC(c3ccccc3)c3ccccc3)CC2)cc1 [ebastine],"amount of MKRN1 protein, H307E mutant",[1],did not reduce the amount of MKRN1 protein
same,"amount of MKRN1 protein, MKRN1 264-482",[2]; 293T cells overexpressing MKRN1 264-482 (contains RING finger),decreased
same,"amount of MKRN1 protein, MKRN1 WT",[2]; 293T cells overexpressing MKRN1 WT,decreased
same,ubiquitination of MKRN1,[3],induced the ubiquitination of MKRN1
same,amount of MKRN1 protein,"[4]; cultured for 16 or 24 hours, FIG. 9",decreased
same,amount of MKRN1 protein with proteasome inhibitor MG132,"[4]; ebastine together with MG132, FIG. 10",decrease in MKRN1 protein was suppressed by MG132 treatment
same,ubiquitination of MKRN1 (264-482),[5],increased
